PubChem BioAssay AID743454 – Peter MacCallum Cancer Centre | 2014
The whole screen tested about 18,000 reagents; below is an unselected part. 450 of them (2.5%) were called active. 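Single biological run; no consistent viability z cut-off exists, so the class columns, not z-scores, define the calls.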

- Test: 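Search for knock-downs that restore vorinostat killing in resistant colon cancer cells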 (primary screen)
- System: human HCT116-VR colon cancer cells, selected for vorinostat resistance
- Knock-down reagent: siRNA pool against human genes, 40 nM siRNA pool
- Time to read-out: vorinostat for 24 h, read-out about 72 h after transfection
- Conditions: vorinostat at 2.5 µM final
- Measured: 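Two measures, CellTiter-Fluor viability and luminescent caspase 3/7 activity, each as fold change against same-plate mock wells, mean of duplicates, then screen-wide robust z-score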
- Scale: viability robust z-score: higher = more viable cells than screen typical; caspase robust z-score: higher = more caspase 3/7 activity than screen typical
- Call rule: 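a knock-down is a hit when classed RV1 or RV2 for lowered viability, or CA1 or CA2 for caspase activation; those lethal without drug were dropped; hits were retested singly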

Target gene,viability hit class,caspase hit class,viability robust z-score,caspase robust z-score,activity call
RIPK2 (GeneID 8767),no change,no change,-0.27,-0.33,inactive
PPFIBP1 (GeneID 8496),no change,no change,0.07,-0.45,inactive
KAAG1 (GeneID 353219),no change,no change,-1.95,3.06,inactive
CDC42EP5 (GeneID 148170),no change,no change,-0.66,-0.02,inactive
BST2 (GeneID 684),no change,no change,-0.84,-0.45,inactive
CNOT4 (GeneID 4850),no change,no change,-1.37,-0.75,inactive
IGLL3P (GeneID 91353),no change,no change,0.36,-0.07,inactive
TMOD1 (GeneID 7111),no change,no change,-0.27,2.36,inactive
TM4SF20 (GeneID 79853),no change,no change,1.82,0.64,inactive
ADCY2 (GeneID 108),no change,no change,-0.06,0.66,inactive
ACOT4 (GeneID 122970),no change,no change,0.98,-0.5,inactive
ZNF639 (GeneID 51193),no change,no change,-0.61,0.52,inactive
LGR6 (GeneID 59352),no change,no change,0.4,-0.78,inactive
MRPS25 (GeneID 64432),no change,no change,1.1,1.68,inactive
TLR3 (GeneID 7098),no change,no change,1.88,-1.01,inactive
ADAMTS9 (GeneID 56999),no change,no change,0.94,-0.6,inactive
TTC7B (GeneID 145567),no change,no change,0.54,-1.17,inactive
ATP6V0A2 (GeneID 23545),no change,no change,0.28,-0.06,inactive
YTHDF1 (GeneID 54915),no change,no change,1.41,0.1,inactive
PLXND1 (GeneID 23129),no change,no change,1.6,2.25,inactive
NCOR2 (GeneID 9612),no change,no change,-1.29,2.49,inactive

Already shown: 2 of the entries above.
Target gene,viability hit class,caspase hit class,viability robust z-score,caspase robust z-score,activity call
BST2 (GeneID 684),no change,no change,-0.84,-0.45,inactive
CNOT4 (GeneID 4850),no change,no change,-1.37,-0.75,inactive

Further records:
Target gene,viability hit class,caspase hit class,viability robust z-score,caspase robust z-score,activity call
FOSL1 (GeneID 8061),no change,no change,1.15,0.72,inactive
PLD4 (GeneID 122618),no change,no change,0.54,-1.09,inactive
CTNS (GeneID 1497),no change,no change,0.91,-0.52,inactive
PTPN18 (GeneID 26469),no change,no change,0.66,0.06,inactive
CAPSL (GeneID 133690),no change,no change,0.13,0.2,inactive
MSRB3 (GeneID 253827),no change,no change,-1.67,0.01,inactive
TMEM132B (GeneID 114795),no change,no change,0.13,-0.34,inactive
PLK1 (GeneID 5347),no change,no change,-4.99,0.36,inactive
CDHR2 (GeneID 54825),no change,no change,0.29,-0.84,inactive
C1QTNF2 (GeneID 114898),no change,no change,-0.44,1.8,inactive
FAM149A (GeneID 25854),no change,no change,0.88,-0.94,inactive
CHST8 (GeneID 64377),no change,no change,-1.34,2.23,inactive
MISO1 (GeneID 285315),no change,no change,1.38,0.23,inactive
RAX (GeneID 30062),no change,no change,-0.28,-0.03,inactive
ACSM4 (GeneID 341392),no change,no change,0.87,-0.52,inactive
ETHE1 (GeneID 23474),no change,no change,-0.3,0.68,inactive
GMDS (GeneID 2762),no change,no change,2.13,-0.39,inactive
PDS5A (GeneID 23244),no change,no change,0.06,-0.88,inactive
